Reference: PMC7567791 (Scientific Reports, 2020)
Results are given in words; binding and its absence hold for the method and conditions named. In cells and extracts the contact can be indirect. Some results given as binding are weak or reduced against the parent protein; the word gives no strength.

By UniProt entry, the sequences of proteins in these tests, tags left out. Where a name states a change or a piece, a line headed by the entry shows the natural chain unless it says otherwise.
UniProt P32121, whole entry: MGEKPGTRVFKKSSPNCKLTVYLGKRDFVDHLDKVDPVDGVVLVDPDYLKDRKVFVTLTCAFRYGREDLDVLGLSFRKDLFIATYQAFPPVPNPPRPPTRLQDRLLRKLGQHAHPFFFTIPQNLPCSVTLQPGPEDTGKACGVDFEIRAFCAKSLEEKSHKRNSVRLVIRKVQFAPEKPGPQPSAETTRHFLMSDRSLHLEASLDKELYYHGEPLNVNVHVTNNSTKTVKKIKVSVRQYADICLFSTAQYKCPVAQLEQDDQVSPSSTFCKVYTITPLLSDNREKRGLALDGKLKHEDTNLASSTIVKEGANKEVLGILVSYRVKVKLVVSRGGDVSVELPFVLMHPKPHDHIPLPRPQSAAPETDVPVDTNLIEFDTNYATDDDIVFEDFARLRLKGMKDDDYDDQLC
UniProt P49407, whole entry: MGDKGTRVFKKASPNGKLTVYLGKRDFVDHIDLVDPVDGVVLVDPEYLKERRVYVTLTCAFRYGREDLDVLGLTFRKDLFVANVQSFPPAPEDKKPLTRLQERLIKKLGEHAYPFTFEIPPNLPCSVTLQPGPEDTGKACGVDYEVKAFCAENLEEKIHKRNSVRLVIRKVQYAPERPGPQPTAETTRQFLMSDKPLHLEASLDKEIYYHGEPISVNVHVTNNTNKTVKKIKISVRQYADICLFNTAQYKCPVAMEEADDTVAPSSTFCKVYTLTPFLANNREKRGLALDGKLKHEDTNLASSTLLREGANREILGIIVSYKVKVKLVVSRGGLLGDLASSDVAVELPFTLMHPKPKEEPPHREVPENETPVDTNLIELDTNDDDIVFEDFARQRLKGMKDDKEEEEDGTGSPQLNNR

Columns and labels:
[1] = biological target: SP-FLAG-μ-OR-RlucII (human) (UniProt P35372); assay: FRET or BRET; BRET^2 as a5 but after 60 min stimulation
[2] = biological target: SP-FLAG-μ-OR-RlucII (human) (UniProt P35372); assay: FRET or BRET; BRET^2 in living parental HEK293A cells, μ-OR-RlucII donor and GFP^2-β-arrestin1 or -2 acceptor, 6 min stimulation with saturating DAMGO, fentanyl, loperamide or morphine, 37 °C, coelenterazine 400a
[3] = biological target: μ-OR-EYFP (human) (UniProt P35372); assay: FRET or BRET; BRET^1 in living parental HEK293A cells (also ΔGRK3 cells), β-arrestin2-RlucII donor and μ-OR-EYFP acceptor, real time, peak at 6-12 min after DAMGO, fentanyl, loperamide or morphine, 37 °C, HBSS with 1 mM CaCl2, 1 mM MgCl2, 20 mM HEPES, 0.01% Pluronic F-68, pH 7.4, coelenterazine h
[4] = biological target: μ-OR-EYFP (human) (UniProt P35372); assay: FRET or BRET; BRET^1 as a1 but after 60 min stimulation with saturating agonist concentrations

GFP^2-β-arrestin2 (from UniProt P32121 1-409)
binding [1]: binds weakly | binding [2]: binds

β-arrestin2-RlucII (from UniProt P32121 1-409)
binding [3]: binds | binding [4]: binds weakly

GFP^2-β-arrestin1 (from UniProt P49407 1-418)
binding [1]: binds weakly | binding [2]: binds
